{"sequences": {"note": "Sequences of proteins named here, by UniProt entry; tags and fusion partners are left off. A change or cut given only in a name is not applied to a line headed by its entry.", "UniProt O00571": "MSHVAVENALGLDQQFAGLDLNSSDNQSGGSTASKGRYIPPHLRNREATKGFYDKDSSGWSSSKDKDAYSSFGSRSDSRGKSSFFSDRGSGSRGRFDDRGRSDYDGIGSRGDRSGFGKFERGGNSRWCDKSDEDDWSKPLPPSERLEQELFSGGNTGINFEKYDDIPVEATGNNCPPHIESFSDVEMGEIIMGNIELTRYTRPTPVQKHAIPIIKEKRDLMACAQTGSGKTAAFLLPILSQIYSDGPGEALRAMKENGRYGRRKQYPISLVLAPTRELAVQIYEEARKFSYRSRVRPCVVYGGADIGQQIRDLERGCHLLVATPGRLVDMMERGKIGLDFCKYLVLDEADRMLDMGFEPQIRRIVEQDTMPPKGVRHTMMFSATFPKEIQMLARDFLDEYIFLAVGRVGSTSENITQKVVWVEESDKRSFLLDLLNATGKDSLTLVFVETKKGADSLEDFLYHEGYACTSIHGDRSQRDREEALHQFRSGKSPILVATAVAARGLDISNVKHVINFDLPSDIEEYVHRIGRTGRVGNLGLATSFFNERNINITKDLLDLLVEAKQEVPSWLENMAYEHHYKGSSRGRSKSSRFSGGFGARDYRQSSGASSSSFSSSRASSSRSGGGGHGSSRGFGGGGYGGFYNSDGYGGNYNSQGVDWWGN", "UniProt P23258": "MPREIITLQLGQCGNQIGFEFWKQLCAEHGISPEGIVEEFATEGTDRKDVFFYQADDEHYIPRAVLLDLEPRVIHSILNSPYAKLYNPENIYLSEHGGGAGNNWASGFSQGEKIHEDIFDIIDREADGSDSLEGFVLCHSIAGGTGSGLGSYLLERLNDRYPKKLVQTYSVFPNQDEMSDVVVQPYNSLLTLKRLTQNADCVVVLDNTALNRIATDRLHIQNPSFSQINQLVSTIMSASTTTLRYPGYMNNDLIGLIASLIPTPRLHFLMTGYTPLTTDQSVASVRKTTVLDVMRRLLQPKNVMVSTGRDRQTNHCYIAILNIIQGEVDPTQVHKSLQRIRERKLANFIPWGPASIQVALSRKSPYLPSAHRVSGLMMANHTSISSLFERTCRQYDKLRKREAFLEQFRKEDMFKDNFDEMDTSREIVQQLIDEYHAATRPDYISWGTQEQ"}, "source": "paper PMC5573351", "molecular_target": "DEAD-box RNA helicase DDX3 (human (endogenous in HCT116)) (UniProt O00571)", "test": "co-IP; HCT116 cell extracts (500 μg; PBS with 0.5% NP-40, protease inhibitors), pre-cleared, incubated with anti-DDX3, anti-p53, anti-phospho-Ser15-p53 antibody or control IgG at 4 °C overnight, protein G-Sepharose, washed three times with PBS; western blot with anti-γ-tubulin, anti-DDX3, anti-p53 and anti-phospho-Ser15-p53", "note": "No constants are given. Whether binding was seen depends on the method and setting. In cells and extracts the contact can be indirect. Binding calls can cover weak binding; strength is not graded here."}
{"substance": "γ-tubulin (from UniProt P23258)", "values": [{"measurement": "binding", "value": "binds"}]}
